One experiment concerns the target CW6W47.001. In words: SPR Biacore 8K, captured mAb. On the technique in general: Surface plasmon resonance follows binding to a sensor surface in real time, without labels.
The target in experiment [1] is rhHLA-Cw6 stably expressed on K562 cells (K562-rhHLA-Cw6) (human) (UniProt P10321). Nature of the experiment: MSD cell binding.

Protein sequences, listed by entry. Tags and fused reporters are not part of them. Lines headed by an entry give the natural chain unless they say otherwise; changes in a name come on top.
UniProt P10321: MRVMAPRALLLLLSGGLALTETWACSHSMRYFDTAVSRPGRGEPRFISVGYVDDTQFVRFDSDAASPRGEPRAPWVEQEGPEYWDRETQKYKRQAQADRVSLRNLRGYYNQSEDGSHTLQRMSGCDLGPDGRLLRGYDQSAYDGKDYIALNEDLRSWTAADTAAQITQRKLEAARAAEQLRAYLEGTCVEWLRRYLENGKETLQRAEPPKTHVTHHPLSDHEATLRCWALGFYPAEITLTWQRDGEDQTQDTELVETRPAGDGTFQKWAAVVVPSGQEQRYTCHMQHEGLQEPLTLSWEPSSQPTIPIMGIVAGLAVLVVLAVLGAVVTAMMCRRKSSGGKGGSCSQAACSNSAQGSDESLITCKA

Results are given in words; binding and its absence hold for the method and conditions named. Some entries that bind do so weakly or less than the wild type.

From US20200317791A1 come the findings set out here.

B1: CW6B130 (antibody, V domains shown)
VH: QLQLQESGPGLVKPSETLSLTCTVSGASISSINYYWGWIRQPPGKGLEWIGSFYYSGNTYYNPSLKSRVTISVDTSKNYFSLKLNSVTAADTAVYYCAREYYDSSGYYPFEPWGQGTLVTVSS
VL: SYVLTQPPSVSVAPGQTARITCGGDNIGSESVHWYQQKPGQAPVLVVYDDTDRPSGIPERFSGSKSGTTATLTISWVEAGDEADYYCQVWDSSSDHVVFGGGTKLTVL
As for B1, the binding entry with CW6W47.001 is listed as “no binding (tested: 3.7-100 nM antigen)”.

B2: CW6B175 (antibody, V domains shown)
VH: EVQLVESGGGLVQPGGSLRLSCAASGFTFTNYWMTWVRQAPGKGLEWVANIKQSGSEKYYVDSVKGRFTISRDNAKNSLYLQMNSLRAEDTAVYYCARTLYEWELEPFDYWGQGTLVTVSS
VL: SYVLTQPPSVSVAPGQTARITCGGNRIGSKSVHWYQQKPGQAPVLVVFDDSDRPSGIPERFSGSNSGITATLTISRVEAGDEADYYCQVWDSSNDHVVFGGGTKLTVL
B2: the binding entry in the experiment with CW6W47.001 is “no binding (tested: 3.7-100 nM antigen)”.

B3: CW6B228 (antibody, V domains shown)
VH: QVQLQESGPGLVKPSETLSLTCTVSGNSIRSYYWSWIRQPAGKGLEWIGRIYISGNTNYNPSLKSRVTMSIDTSKNQFSLKLSSVTAADTAVYYCARLSGIDAFDIWGQGTMVTVSS
VL: DIQMTQSPSSLSASVGDRVTITCQASQDINNYLNWYQQKPGKAPKLLIYDASSLETGVPSRFSGSGSGTDFTFTISSLQPEDFATYYCQQYDDLPITFGQGTRLEIK
Regarding B3, the binding result in experiment [1] is recorded as “binds”.
